Data as given in PubChem BioAssay AID1224826 (NIAID, 2016)
Aim: 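Knock-downs that raise or lower Tnf reporter signal after endotoxin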 (primary screen). System: RAW264.7 G9 macrophages from mouse bearing reporters for p65 (GFP) and the Tnf promoter (mCherry). Reagents: siRNA pool against mouse genes, 100 nM. Duration: 16 h of LPS stimulation, after 2 days of siRNA transfection. Conditions: bacterial lipopolysaccharide (Salmonella minnesota R595), 10 ng/ml. Measured: 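Imaged Tnf reporter mCherry in nuclei, minus background, normalised per plate to the median and expressed as robust z-scores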. Direction: Tnf reporter robust z-score: higher = stronger Tnf promoter reporter signal after LPS; Tnf reporter intensity: higher = stronger Tnf promoter reporter signal. Active means: 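Called active when robust z-score is at most -1.3, matching the median of the Tlr4 knock-down control, or over 3; control wells and wells with under 50 cells never active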. Meaning of the calls: active = Tnf reporter clearly lowered or raised; inactive = no clear change in Tnf reporter.
The whole screen tested about 17,000 reagents; shown is a random part of them. Of all reagents, about 1,110 (6.6%) are marked active. 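Active means lowered or raised reporter signal; replicate intensities are raw and not normalised per plate.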 Entries without a mark were called inactive.

gene symbol | Tnf reporter robust z-score | fewer than 50 cells in well | Tnf reporter intensity, replicate 1 | Tnf reporter intensity, replicate 2
Capza1b | -0.58 | enough cells in well | 179 | 49.2
Srebf2 | 0.14 | enough cells in well | 322 | 201
Kctd18 | 0.06 | enough cells in well | 201 | 174
Dema1 | -0.24 | enough cells in well | 215 | 69.3
Ccdc71 | -0.69 | enough cells in well | 191 | 54.1
Bag2 | -0.59 | enough cells in well | 109 | 140
Tubb2b | -0.19 | enough cells in well | 206 | 74.5
Cenpq | – | fewer than 50 cells per well; well left out of calls | 175 | 33.6
COL6A3 | 0.12 | enough cells in well | 231 | 142
Ptpn13 | -1.93 (active) | enough cells in well | 93.4 | 60.4
Cacng3 | -0.63 | enough cells in well | 122 | 143
Col4a3 | -0.25 | enough cells in well | 212 | 203
Bglap3 | 1.51 | enough cells in well | 16 | 250
Zfp68 | -0.8 | enough cells in well | 45.2 | 91.6
Tcirg1 | -0.69 | enough cells in well | 203 | 87.7
Gfus | -0.61 | enough cells in well | 82.5 | 80.3
Csde1 | 0.52 | enough cells in well | 291 | 246
H2bc8 | – | fewer than 50 cells per well; well left out of calls | 122 | 51.3
Mfsd6 | -0.44 | enough cells in well | 144 | 170
Rspry1 | 0.16 | enough cells in well | 140 | 196
Klra20 | -1.06 | enough cells in well | 218 | 49.9
Robo4 | 0.4 | enough cells in well | 150 | 70.2
Fam13b | -0.25 | enough cells in well | 154 | 153
Ttc3 | -0.16 | enough cells in well | 101 | 94.1
Hacd1 | 0.27 | enough cells in well | 250 | 225
Ubr3 | 0.13 | enough cells in well | 177 | 163
Rnf31 | 1.63 | enough cells in well | 185 | 212
Sp7 | -0.5 | enough cells in well | 276 | 141
Golt1a | 1.4 | enough cells in well | 398 | 110
Crybb3 | 0.94 | enough cells in well | 293 | 284
Acss1 | 0.18 | enough cells in well | 215 | 203
Sppl2a | – | fewer than 50 cells per well; well left out of calls | 185 | 65.9
Tmem171 | -1.29 | enough cells in well | 108 | 190
Mbl2 | -0.46 | enough cells in well | 207 | 187
Or2y16 | -1.18 | enough cells in well | 137 | 52.7
Kpna1 | -0.56 | enough cells in well | 191 | 124
Prb1a | 0.83 | enough cells in well | 385 | 63.9
Anxa4 | -0.62 | enough cells in well | 131 | 137
Plcg1 | 1.06 | enough cells in well | 314 | 278
Myo1d | 0.74 | enough cells in well | 216 | 245
Gpsm1 | 0.03 | enough cells in well | 293 | 135
Cd68 | 0.72 | enough cells in well | 280 | 284
Elfn2 | -1.15 | enough cells in well | 123 | 75.8
Cyp1b1 | -0.06 | enough cells in well | 232 | 196
Pctp | -0.79 | enough cells in well | 119 | 86.9
Rnf19a | 1.78 | enough cells in well | 200 | 210
Mdh2 | -0.66 | enough cells in well | 129 | 129
Lpcat1 | 0.39 | enough cells in well | 157 | 193
Trex2 | -0.25 | enough cells in well | 208 | 214
Mrps17 | -0.96 | enough cells in well | 172 | 61.6
Vmn1r43 | – | fewer than 50 cells per well; well left out of calls | 34.6 | 39.2
Mdfic | 2.56 | enough cells in well | 363 | 242
Vmn1r11 | 2.78 | enough cells in well | 210 | 189
Prl5a1 | -1.21 | enough cells in well | 119 | 95
Pcdh20 | 1.62 | enough cells in well | 198 | 234
Upk3a | 0.73 | enough cells in well | 147 | 53.1
Kcnip1 | 0.26 | enough cells in well | 206 | 145
Cd207 | -1.17 | enough cells in well | 97.4 | 109

Targets above whose target name begins with G or g (3):
gene symbol | Tnf reporter robust z-score | fewer than 50 cells in well | Tnf reporter intensity, replicate 1 | Tnf reporter intensity, replicate 2
Gfus | -0.61 | enough cells in well | 82.5 | 80.3
Golt1a | 1.4 | enough cells in well | 398 | 110
Gpsm1 | 0.03 | enough cells in well | 293 | 135
